Test results published in patent US20150266969A1.
No constants are given. Whether binding was seen depends on the method and setting. Some results given as binding are weak or reduced against the parent protein; the word gives no strength.

Molecular target: pDisplay-ECD1 on HEK293 cells (UniProt P09619)
Test: flow cytometry on HEK293 cells (FIG. 24: PEP2-2-1)

- binding: binds
B1: PEP2-2-1 (format not stated) (VHH)
VHH: EVQLLESGGGLVQPGGSLRLSCAASGFTFRNHDMGWVRQAPGKGLEWVSAISGSGGSTYYANSVKGRFTISRDNSKNTLYLQMNSLRAEDTAVYYCAEPKPMDTEFDYRSPGTLVTVSS
